Data taken from patent publication US7597692B2, “Microscission processes and procedures” (Massachusetts Institute of Technology, priority 2000, dated 2009).

Tested on: Subject A's stratum corneum / skin around the microconduit

## CCN(CC)CC(=O)Nc1c(C)cccc1C [lidocaine]
50% Lidocaine swab held 2.5 minutes on control (non-microscissioned) stratum corneum site
  prick sensation at treated control site: same level of prick sensation as a nontreated site
50% Lidocaine swab held on microconduit site for 2 minutes, needle prick, Subject A
  radial distance from the microconduit numbed to the point of no sensation: approximately 0.015 inch
50% Lidocaine swab on microconduit site 2 minutes, Subject A
  time after which the numbness began to diminish: 9 min
